Data on three molecules can be found in patent publication US6083920A, “Compositions for modulating intracellular inositol trisphosphate concentration” (priority 1996, dated 2000).

The subject of the data set is cultured neurons. The experiment in a line: Lysosphingolipid content of cultured neurons by NBDZF fluorescence tagging. The format is cell-based, chick. The conditions noted are these: for lysosphingolipid content of agonist-stimulated neurons: 100 μM ibotenate for 1 hour, n=6; for lysosphingolipid content of resting, unstimulated neurons: n=9. From the text: Agonist-binding to metabotropic receptors influences the levels of lysosphingolipid in neuronal membranes. However, there is no convenient methodology available for the measurement of lysosphingolipid content in cultured neurons. As a result, a sensitive method of fluorometric tracing has been devised and is described herein. The measurement of lysosphingolipid content in cultured neurons is based on the stable fluorescence-tagging procedure using 4-fluoro, 7-nitrobenzofuran (NBDZF) described by Nozowa et al J. Neurochem. 59:607-609, 1992). The procedure was applied to: resting neurons; neurons exposed to 100 μM metabotropic receptor agonist for 1 hour; resting neurons exogenously enriched in lysosphingolipids; and neurons exogenously enriched in lysosphingolipids and exposed to metabotropic receptor agonist for 1 hour. The neurons were scraped in batches of 107 (1 Petri dish, approximately 8 cm in diameter, is equivalent to 2 mg membrane protein) and subjected to anaylsis.
Total lipids were removed from the neuron samples by repeated extraction with chloroforn:methanol (2:1, vol:vol). The lysosphingolipids were separated from total neuronal lipid in 90±5% recovery yield (n=10) by the stepped chromatographic procedure of Van Veldhoven et al. (Anal. Biochem. 183:177-189, 1989). The recovered lysosphingolipids were stably tagged with NBDZF by the rapid procedure of Nozowa et al. (supra). The fluorescence tagged neuronal lysosphingolipids were separated in parallel with reference standards NBDZF-Sph, NBDZF-Psy, and NBDZF-Lsm on high performance silica gel thin layer chromatography plates with acetonitrile:H2 O (10:0.5, vol:vol). The highly fluorescent, well separated bands were scraped from the plate. The fluorescence tagged lysosphingolipids are eluted from the scraped silica gel with methanol:1 N HCl (1:0.02, vol:vol). The fluorescence tagged lysosphingolipid eluates were quantitated against reference standards by fluorescence measurement in a Perkin-Elmer LS-5 Fluorescence Spectrometer.
Sphingolipid content of neurons exposed to sphingosine, lysocerebroside, and lysosphingomyelin was examined as follows. A Petri dish containing approximately 107 neurons was incubated with 5 μCi [^3 H]myo-Ins in 3 ml DMEM overnight to prelabel the phosphoinositide InsP3 may contain. The neurons were washed with PBS and 3 ml of PBS containing 4.5 g/l glucose was added. Preparations of sphingosine, lysocerebroside, lysosphingomyelin (Sigma Chemical Co., St. Louis, Mo.) and combinations of each were prepared as the hydrochloride salt dissolved in PBS. The lysosphingolipids were added to the Petri dishes to produce a concentration ranging from 0-150 μM. […] Trypsinization removes non-specifically bound lysosphingolipids that may adhere to extracellular plasma membrane protein domain s. Non-specific adherence between cationic micelles of lysosphingolipids and the neuronal glycocatyx avoided by performing the experiments with lysosphingolipid concentrations below the critical micelle concentration. Neurons were analyzed for lysosphingolipid content as described above.

On to `CCCCCCCCCCCCC/C=C/[C@@H](O)[C@@H](N)COP(=O)([O-])OCC[N+](C)(C)C` [lysosphingomyelin, sphingosyl phosphoryicholine], for which the “lysosphingolipid content of agonist-stimulated neurons” value is recorded as 52±2 pmoles per mg protein and the “lysosphingolipid content of resting, unstimulated neurons” value (“lysosphingolipid content of resting” for short) was determined as 5±0.2 pmoles per mg protein.

For the molecule `CCCCCCCCCCCCC/C=C/[C@@H](O)[C@@H](N)CO[C@@H]1O[C@H](CO)[C@H](O)[C@H](O)[C@H]1O` [psychosine, lysocerebroside], the “lysosphingolipid content of agonist-stimulated neurons” value came out at 80±5 pmoles per mg protein and the “lysosphingolipid content of resting” value came to 50±10 pmoles per mg protein.

For the molecule `CCCCCCCCCCCCC/C=C/[C@@H](O)[C@@H](N)CO` [sphingosine], the “lysosphingolipid content of agonist-stimulated neurons” value is listed as 85±3 pmoles per mg protein and the “lysosphingolipid content of resting” value is given as 113±13 pmoles per mg protein.
